The values that follow come from PMC9334269.

By UniProt entry, the sequences of proteins in these tests, tags left out. Where a name states a change or a piece, a line headed by the entry shows the natural chain unless it says otherwise. Residues count along the entry.
UniProt Q13772: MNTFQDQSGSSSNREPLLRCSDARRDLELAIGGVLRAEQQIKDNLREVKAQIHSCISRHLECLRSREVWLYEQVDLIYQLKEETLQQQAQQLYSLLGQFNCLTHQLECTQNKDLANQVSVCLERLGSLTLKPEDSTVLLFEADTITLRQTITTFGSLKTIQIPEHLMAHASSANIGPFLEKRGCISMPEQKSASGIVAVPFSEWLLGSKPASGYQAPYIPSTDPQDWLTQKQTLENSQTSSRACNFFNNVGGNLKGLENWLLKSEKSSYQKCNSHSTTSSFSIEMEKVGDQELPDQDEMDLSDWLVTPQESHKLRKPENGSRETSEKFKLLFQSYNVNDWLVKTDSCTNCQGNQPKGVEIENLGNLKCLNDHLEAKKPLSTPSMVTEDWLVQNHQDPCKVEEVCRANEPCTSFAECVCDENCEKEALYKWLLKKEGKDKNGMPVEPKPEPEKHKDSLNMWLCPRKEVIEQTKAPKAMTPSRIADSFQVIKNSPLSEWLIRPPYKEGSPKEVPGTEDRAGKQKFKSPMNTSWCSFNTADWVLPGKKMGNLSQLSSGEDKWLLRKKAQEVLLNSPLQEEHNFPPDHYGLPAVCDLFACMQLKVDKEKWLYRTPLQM
NCOA4 1-245-Myc (CC fragment of NCOA4): residues 1-245 of Q13772
UniProt Q86WV6: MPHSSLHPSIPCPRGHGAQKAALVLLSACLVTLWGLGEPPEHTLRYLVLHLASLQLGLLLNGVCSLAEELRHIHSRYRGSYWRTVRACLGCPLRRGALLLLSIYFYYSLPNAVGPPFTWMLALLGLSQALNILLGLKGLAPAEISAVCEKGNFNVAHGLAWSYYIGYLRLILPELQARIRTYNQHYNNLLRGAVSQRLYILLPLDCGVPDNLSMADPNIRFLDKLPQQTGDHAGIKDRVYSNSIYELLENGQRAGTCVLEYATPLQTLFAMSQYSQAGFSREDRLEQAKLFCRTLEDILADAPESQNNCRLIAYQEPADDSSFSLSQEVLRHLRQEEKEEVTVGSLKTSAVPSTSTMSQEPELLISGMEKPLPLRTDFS
STING1 CBD-Flag (amino acids 180-340): residues 180-340 of Q86WV6

Assay [1] concerns the target NCOA4 1-245-Myc (CC fragment of NCOA4) (human) (UniProt Q13772). In words: co-IP; HEK293T cells overexpressing Myc-tagged NCOA4 fragments and Flag-tagged STING1; Myc IP from lysates, immunoblot.
The target in the next assay is HA-tagged NCOA4 (human) (UniProt Q13772). In words: co-IP; HEK293T cells co-transfected with Flag-STING and HA-NCOA4; IP with anti-HA (NCOA4 as bait), protein A/G agarose, immunoblot.
Assay [2] has as its target STING1-Flag (Flag-tagged full-length STING) (UniProt Q86WV6). Description: co-IP; HEK293T cells co-transfected; cleared lysate, IP with anti-Flag (STING as bait) overnight at 4 °C, protein A/G agarose, three washes with lysis buffer, immunoblot. A general note: A western blot detects proteins with antibodies after separation by electrophoresis.
Assay [3] concerns the target STING1 CBD-Flag (amino acids 180-340) (UniProt Q86WV6). The assay is described as above.
Assay [4] deals with STING1-Flag (Flag-tagged full-length STING) (UniProt Q86WV6). Description: co-IP; HEK293T cells with Flag-tagged full-length or truncated STING and FL NCOA4-Myc (Supplementary Fig. S5E); antibody used for the IP not told.

No constants are given. Whether binding was seen depends on the method and setting. Binding seen in cells or lysates may run through a third protein. Some binding calls cover weakened binding; strength is not graded here.

As to “STING1-Flag (Flag-tagged full-length STING) (from UniProt Q86WV6 1-379)”, the binding result (in assay [1]; in the assay with HA-tagged NCOA4 (human)) was “binds” throughout.

Take “HA-tagged NCOA4 (from UniProt Q13772-1 1-614)”: the binding result in assay [2] and in assay [3] was “binds” throughout.

Turning to “FL NCOA4-Myc (full-length human NCOA4, Myc-tagged) (from UniProt Q13772-1 1-614)”, the binding result in assay [4] is given as “binds”.
